Reference: patent US20150337351A1, “METHODS OF MICROORGANISM IMMOBILIZATION” (priority 2014, published 2015)
For at least one compound, name, drawing or mass did not settle the structure.

Columns and labels:
[1] = system: E. coli 25922 (Ecol) in presence of P. aeruginosa 519749 (Paer); test: Mixed species disk diffusion test (variation of Hodge test) on mixed lawn; format: cell-based, Escherichia coli; conditions: 1:1 mixed lawn of Ecol and Paer, IMP 10 disk, overnight at 35° C.; oxidase and indole tests
E. coli 25922 (Ecol) = test: Plate-based disk diffusion tests, sensitive strain; format: cell-based, Escherichia coli; conditions: blood agar lawn plates, antibiotic disk, overnight at 35° C.
Method: (§1) Several nutrient agar plating methods employing antibiotics, other chemicals, and one or more species of bacteria have been devised to study these mechanisms. The most basic of these tests, the disk-diffusion method, employs a single test strain of bacteria which is used to create a uniform layer or lawn when grown. A disk-containing antibiotic is placed on the inoculated plate and the plate is then incubated to grow the lawn. In cases where the strain is sensitive to the antibiotic, a zone of no growth is observed around the disk. The distance from the disk to the edge of this zone is an indicator of the level of resistance to the antibiotic present in the disk, based on how far the antibiotic can diffuse into the nutrient medium. A variation on this test is to employ a second disk or drop of fluid near the antibiotic disk that contains a chemical that can affect the antibiotic response. Differences between the zone in areas near the chemical and away from the chemical can indicate the type of resistance mechanism at work in the test. In this case, the chelating agent ethylenediamine tetraacetic acid (EDTA) (Sigma-Aldrich) can be used to test for the presence of a class of antibiotic resistance enzyme called metallo-beta-lactamase, which is inhibited by EDTA. The positive result for this test is a larger zone of inhibition near the EDTA indicating reduced effectiveness of the enzyme. […]

[2] = system: P. aeruginosa 519749 (Paer); test: Plate-based disk diffusion tests, resistant strain; format: cell-based, Pseudomonas aeruginosa; conditions: blood agar lawn plates, antibiotic disk, overnight at 35° C.
Method: as §1

With `C[C@@H](O)[C@H]1C(=O)N2C(C(=O)O)=C(SCCN=CN)C[C@H]12` [IPM, imipenem] the “Ecol growth in the zone of inhibition in the presence of the Paer strain” value [1] was “Ecol could grow in the zone of inhibition”, the “Susceptibility of Ecol strain in plating-based tests” value (E. coli 25922 (Ecol)) was “sensitive” and the “Resistance of Paer isolate in plating-based tests” value [2] was “high resistance”. For the same compound, the “Zone of inhibition, Paer isolate” value [2] was “no zone of inhibition observed”.
